Test results: paper PMC3762726
Results are given in words; binding and its absence hold for the method and conditions named. Binding seen in cells or lysates may run through a third protein. Here binding means that the protein was enriched with, or labelled near, the bait; the list need not be complete. Tags and fused reporters may be left off the sequences shown.

T1: TAP-tagged KSRP (K homology splicing regulatory protein) (UniProt Q92945)
T1 sequence: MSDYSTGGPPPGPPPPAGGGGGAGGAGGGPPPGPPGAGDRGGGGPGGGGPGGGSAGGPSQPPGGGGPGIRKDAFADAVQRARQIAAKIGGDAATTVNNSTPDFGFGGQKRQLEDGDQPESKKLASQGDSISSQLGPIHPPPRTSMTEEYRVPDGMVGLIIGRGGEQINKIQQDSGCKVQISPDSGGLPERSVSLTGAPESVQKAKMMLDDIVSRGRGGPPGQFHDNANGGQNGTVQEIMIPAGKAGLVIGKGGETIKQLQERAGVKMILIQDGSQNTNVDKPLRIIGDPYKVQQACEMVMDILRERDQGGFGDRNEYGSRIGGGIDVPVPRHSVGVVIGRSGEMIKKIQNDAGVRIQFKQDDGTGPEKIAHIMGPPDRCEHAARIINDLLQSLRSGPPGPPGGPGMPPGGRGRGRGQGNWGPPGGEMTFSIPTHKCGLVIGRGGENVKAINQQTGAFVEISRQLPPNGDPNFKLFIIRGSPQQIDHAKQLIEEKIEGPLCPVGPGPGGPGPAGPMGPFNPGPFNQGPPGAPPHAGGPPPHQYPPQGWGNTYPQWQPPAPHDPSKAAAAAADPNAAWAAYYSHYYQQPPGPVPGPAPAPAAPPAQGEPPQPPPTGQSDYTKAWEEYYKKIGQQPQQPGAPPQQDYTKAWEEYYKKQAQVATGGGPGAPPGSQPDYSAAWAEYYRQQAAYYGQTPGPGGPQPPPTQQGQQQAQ

B1: DEAD box protein DDX1, endogenous (protein, UniProt Q92499 1-740)
chain: MAAFSEMGVMPEIAQAVEEMDWLLPTDIQAESIPLILGGGDVLMAAETGSGKTGAFSIPVIQIVYETLKDQQEGKKGKTTIKTGASVLNKWQMNPYDRGSAFAIGSDGLCCQSREVKEWHGCRATKGLMKGKHYYEVSCHDQGLCRVGWSTMQASLDLGTDKFGFGFGGTGKKSHNKQFDNYGEEFTMHDTIGCYLDIDKGHVKFSKNGKDLGLAFEIPPHMKNQALFPACVLKNAELKFNFGEEEFKFPPKDGFVALSKAPDGYIVKSQHSGNAQVTQTKFLPNAPKALIVEPSRELAEQTLNNIKQFKKYIDNPKLRELLIIGGVAARDQLSVLENGVDIVVGTPGRLDDLVSTGKLNLSQVRFLVLDEADGLLSQGYSDFINRMHNQIPQVTSDGKRLQVIVCSATLHSFDVKKLSEKIMHFPTWVDLKGEDSVPDTVHHVVVPVNPKTDRLWERLGKSHIRTDDVHAKDNTRPGANSPEMWSEAIKILKGEYAVRAIKEHKMDQAIIFCRTKIDCDNLEQYFIQQGGGPDKKGHQFSCVCLHGDRKPHERKQNLERFKKGDVRFLICTDVAARGIDIHGVPYVINVTLPDEKQNYVHRIGRVGRAERMGLAISLVATEKEKVWYHVCSSRGKGCYNTRLKEDGGCTIWYNEMQLLSEIEEHLNCTISQVEPDIKVPVDEFDGKVTYGQKRAAGGGSYKGHVDILAPTVQELAALEKEAQTSFLHLGYLPNQLFRTF
B2: DNA replication licensing factor MCM5 (protein, UniProt P33992 1-734)
chain: MSGFDDPGIFYSDSFGGDAQADEGQARKSQLQRRFKEFLRQYRVGTDRTGFTFKYRDELKRHYNLGEYWIEVEMEDLASFDEDLADYLYKQPAEHLQLLEEAAKEVADEVTRPRPSGEEVLQDIQVMLKSDASPSSIRSLKSDMMSHLVKIPGIIIAASAVRAKATRISIQCRSCRNTLTNIAMRPGLEGYALPRKCNTDQAGRPKCPLDPYFIMPDKCKCVDFQTLKLQELPDAVPHGEMPRHMQLYCDRYLCDKVVPGNRVTIMGIYSIKKFGLTTSRGRDRVGVGIRSSYIRVLGIQVDTDGSGRSFAGAVSPQEEEEFRRLAALPNVYEVISKSIAPSIFGGTDMKKAIACLLFGGSRKRLPDGLTRRGDINLLMLGDPGTAKSQLLKFVEKCSPIGVYTSGKGSSAAGLTASVMRDPSSRNFIMEGGAMVLADGGVVCIDEFDKMREDDRVAIHEAMEQQTISIAKAGITTTLNSRCSVLAAANSVFGRWDETKGEDNIDFMPTILSRFDMIFIVKDEHNEERDVMLAKHVITLHVSALTQTQAVEGEIDLAKLKKFIAYCRVKCGPRLSAEAAEKLKNRYIIMRSGARQHERDSDRRSSIPITVRQLEAIVRIAEALSKMKLQPFATEADVEEALRLFQVSTLDAALSGTLSGVEGFTSQEDQEMLSRIEKQLKRRFAIGSQVSEHSIIKDFTKQKYPEHAIHKVLQLMLRRGEIQHRMQRKVLYRLK
B3: hnRNP M (protein, UniProt P52272 1-730)
chain: MAAGVEAAAEVAATEIKMEEESGAPGVPSGNGAPGPKGEGERPAQNEKRKEKNIKRGGNRFEPYANPTKRYRAFITNIPFDVKWQSLKDLVKEKVGEVTYVELLMDAEGKSRGCAVVEFKMEESMKKAAEVLNKHSLSGRPLKVKEDPDGEHARRAMQKVMATTGGMGMGPGGPGMITIPPSILNNPNIPNEIIHALQAGRLGSTVFVANLDYKVGWKKLKEVFSMAGVVVRADILEDKDGKSRGIGTVTFEQSIEAVQAISMFNGQLLFDRPMHVKMDERALPKGDFFPPERPQQLPHGLGGIGMGLGPGGQPIDANHLNKGIGMGNIGPAGMGMEGIGFGINKMGGMEGPFGGGMENMGRFGSGMNMGRINEILSNALKRGEIIAKQGGGGGGGSVPGIERMGPGIDRLGGAGMERMGAGLGHGMDRVGSEIERMGLVMDRMGSVERMGSGIERMGPLGLDHMASSIERMGQTMERIGSGVERMGAGMGFGLERMAAPIDRVGQTIERMGSGVERMGPAIERMGLSMERMVPAGMGAGLERMGPVMDRMATGLERMGANNLERMGLERMGANSLERMGLERMGANSLERMGPAMGPALGAGIERMGLAMGGGGGASFDRAIEMERGNFGGSFAGSFGGAGGHAPGVARKACQIFVRNLPFDFTWKMLKDKFNECGHVLYADIKMENGKSKGCGVVKFESPEVAERACRMMNGMKLSGREIDVRIDRNA

biological target: T1, TAP-tagged KSRP (K homology splicing regulatory protein); experiment: affinity purification with mass spectrometry; TAP purification (two steps of affinity chromatography) of TAP-KSRP from RNase A-treated extracts of stable HT1080 cells; bands 1 and 2 of a silver-stained gel analysed by mass spectrometry; control cells with the TAP tag only

binding, binds:
B1
B2
B3
